Out of some 320,000 compounds screened, about 22,000 (6.9%) were called active. Inconclusive results, whose numbers are uncertain, are shown with a selection of clear calls. Calls follow the shape of the dose curve; as a rule, active = well fitted inhibition curve with a large enough effect; inconclusive = small, poorly fitted or top-dose-only effect, or another doubt; inactive = no such curve, though single readings can be large or run the other way. Where the call is inconclusive, the potency comes from a doubtful curve fit.
Test: Primary qHTS for delayed death inhibitors of the malarial parasite plastid, 96 hour incubation
Conditions: P. falciparum luciferase reporter growth; series mostly up to 28.7 µM
Outline: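 Plates of compound plus infected erythrocytes (2% hematocrit, 0.05% parasitemia final) incubate 96 hours, 37 C, 5% CO2. Detection reagent added; reduced luminescence from the parasites' luciferase reporter flags inhibition.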
In the case of `COc1ccc(NC(=O)c2sc3ncn(CC(=O)N4CCCCC4)c(=O)c3c2C)cc1OC`, the Potency is reported as inconclusive: 1.47 µM [inhibitor, full curve, poor fit]. With `COc1ccc2nc(N(CCN(C)C)C(=O)/C=C/c3cccs3)sc2c1` the Potency was inconclusive: 18.5 µM [inhibitor, single point]. In the case of `CCOc1cc(C(=O)N2CCc3cc(OC)c(OC)cc3C2)ccc1OC(F)F`, the Potency is reported as active: 5.86 µM. With `CN(C)c1ccc(N=Nc2ccccc2C(=O)OCC(=O)N(C)c2ccccc2)cc1` the Potency was inconclusive: 1.85 µM [inhibitor, full curve]. For `CCC(C)(C)n1nnnc1C(C(C)C)N1CCSCC1` (stereo not drawn), the Potency was inconclusive: 16.5 µM [inhibitor, single point]. In the case of `Cc1ccc(C)c(N(CC(=O)Nc2cc(Cl)ccc2Oc2ccccc2)S(C)(=O)=O)c1`, the Potency is reported as active: 14.7 µM. In the case of `O=C(OCCN1C(=O)c2cccc3c(N4CCOCC4)ccc(c23)C1=O)c1ccc(Cl)cc1`, the Potency is reported as active: 11.7 µM. In the case of `O=C(Nc1ccc(N2CCOCC2)c(Cl)c1)c1ccco1`, the Potency is reported as “inactive”. With `O=C(N/N=C/c1ccc([N+](=O)[O-])o1)c1cn(-c2ccccc2)nc1-c1ccc(F)cc1` the Potency was inconclusive: 3.7 µM [inhibitor, full curve, poor fit]. With `O=C(NCc1ccccc1)c1cc(-c2ccncc2)nc2ccccc12` the Potency was inconclusive: 9.28 µM [inhibitor, partial curve, poor fit]. For `COc1cc(C(=O)NCCCOC(C)C)ccc1OC1CCN(C(C)=O)CC1`, the Potency was inconclusive: 1.17 µM [inhibitor, partial curve]. For `FC(F)(F)c1ccc(CNCCc2c[nH]c3ccccc23)cc1`, the Potency was inconclusive: 18.5 µM [inhibitor, single point]. In the case of `CCC(=O)NC(=S)Nc1ccccc1F`, the Potency is reported as inconclusive: 10.4 µM [inhibitor, partial curve, poor fit]. With `COC(=O)CC1(C(=O)OC)Oc2ccc(Br)cc2C(=O)N1c1ccc(Br)cc1Cl` (stereo not drawn) the Potency was active: 11.7 µM. In the case of `COc1ccc(-c2csc(NC(=O)C3CSC4(C)CCC(=O)N34)n2)cc1OC` (stereo not drawn), the Potency is reported as “inactive”. In the case of `CNS(=O)(=O)c1cccc(C(=O)OCC(=O)c2cc(C)n(CC3CCCO3)c2C)c1` (stereo not drawn), the Potency is reported as “inactive”. With `O=C(CCc1ccccc1)N1CCN(c2ccc([N+](=O)[O-])cc2)CC1` the Potency was “inactive”. With `COc1ccc(/C=C/C(=O)OCC(=O)c2ccc3c(c2)NC(=O)CO3)cc1` the Potency was “inactive”. With `Cc1ccn2c(C(=O)NNC(=O)Nc3ccc(Cl)cc3)c(C)nc2c1` the Potency was inconclusive: 11.7 µM [inhibitor, single point]. For `CCC(C)Sc1ccc([C@H]2N[C@@](CC(C)C)(C(=O)OC)[C@H]3C(=O)N(C)C(=O)[C@@H]23)cc1` (stereo partly drawn), the Potency was inconclusive: 11.7 µM [inhibitor, partial curve, poor fit]. With `COc1cc(/C=C(\C#N)C(=O)NC2CCCCC2)ccc1OCc1ccc(C(=O)O)cc1` the Potency was “inactive”. With `Cc1ccc(OCCn2cccn2)c(C)c1` the Potency was “inactive”. With `CN(C)CCCN(C(=O)c1ccc2c(c1)CCCC2)c1nc2ccc(F)cc2s1` the Potency was inconclusive: 2.62 µM [inhibitor, full curve, poor fit]. In the case of `CC(C)(C)C1=Nn2c(nnc2-c2ccccn2)SC1`, the Potency is reported as active: 8.28 µM. For `COc1ccc(C(=O)O)cc1N1C(=O)Nc2ccccc2N1O`, the Potency was “inactive”. For `COc1ccc(C(=O)Sc2ccc(C)cc2)cc1OC`, the Potency was inconclusive: 13.1 µM [inhibitor, single point]. In the case of `CCC(CO)Oc1cc(NCc2ccc(OC)cc2)c2ncn(C(C)C)c2c1` (stereo not drawn), the Potency is reported as inconclusive: 18.5 µM [inhibitor, single point]. For `Cc1cc(C)cc(-n2nnc(C(=O)NCc3ccccc3)c2N)c1`, the Potency was inconclusive: 9.28 µM [inhibitor, partial curve, poor fit]. For `CC/C(=C\C1CCCCC1)C(NP(=O)(c1ccccc1)c1ccccc1)c1ccccc1` (stereo not drawn), the Potency was active: 6.57 µM. With `COc1ccc(Cl)cc1NC(=O)CS(=O)(=O)c1cccc2nsnc12` the Potency was inconclusive: 11.7 µM [inhibitor, partial curve, poor fit]. With `C#CCOCCOCCOCCNc1nc(N2CCN(C(=O)CCCCCCCCCCNC(=O)[C@H]([C@@H](C)CC)n3cc(CCCCCN)nn3)CC2)nc(N2CCN(C(=O)CCCCCCCCCCNC(=O)[C@H](CCCCN)n3cc(CCCC(=O)O)nn3)CC2)n1` the Potency was inconclusive: 11.7 µM [inhibitor, single point]. For `CC(=O)c1cc(C)ccc1OC(=O)c1cccc2nc(C)oc12`, the Potency was inconclusive: 18.5 µM [inhibitor, single point]. In the case of `Cc1ccc(-c2nc(-c3nccc4ccccc34)oc2-c2ccccc2)cc1`, the Potency is reported as inconclusive: 18.5 µM [inhibitor, single point]. For `c1ccc(C[C@H]2CN=C(Nc3ccccc3)N2CCCC2CCCC2)cc1`, the Potency was inconclusive: 0.185 µM [inhibitor, full curve, poor fit]. For `NC(=O)c1c(Nc2nc3c(F)cccc3s2)sc2c1CCCC2`, the Potency was inconclusive: 18.5 µM [inhibitor, single point]. With `CSc1oc(-c2ccc(F)cc2)nc1S(=O)(=O)c1ccccc1` the Potency was inconclusive: 18.5 µM [inhibitor, single point]. In the case of `CCOCCCNC(=O)c1c[nH]c2ccc(C)cc2c1=O`, the Potency is reported as inconclusive: 9.28 µM [inhibitor, single point]. For `Cc1nn(CC(=O)Nc2ccc(C(=O)N3CCCC3)cc2)c(=O)c2ccccc12`, the Potency was active: 9.28 µM. With `CCN(CC)CCNCC(=O)Nc1ccc(Oc2ccccc2)cc1` the Potency was inconclusive: 18.5 µM [inhibitor, single point]. With `O=C(NC(NC1CCS(=O)(=O)C1)C(=O)c1ccccc1)c1ccc(Cl)cc1` (stereo not drawn) the Potency was inconclusive: 14.7 µM [inhibitor, partial curve, poor fit]. With `c1ccc(-c2csc(Nc3ncccn3)n2)cc1` the Potency was inconclusive: 18.5 µM [inhibitor, single point]. For `COc1ccc(N2CCN(S(=O)(=O)c3cc(C)ccc3OC)CC2)cc1`, the Potency was “inactive”. With `Cc1c(NC(=S)NC(=O)C(c2ccccc2)c2ccccc2)cccc1C(=O)O` the Potency was inconclusive: 8.28 µM [inhibitor, partial curve, poor fit]. For `O=C(c1cc2cc(Br)ccc2o1)N1CCOCC1`, the Potency was “inactive”. In the case of `CC(=O)Nc1ccc(NC(=O)CSc2ccccn2)cc1`, the Potency is reported as “inactive”. For `COc1cc(OC)c2c(c1)C(=O)OC2`, the Potency was “inactive”. With `C=CCNC(=O)Cc1ccc(S(=O)(=O)N2CCOCC2)s1` the Potency was inconclusive: 8.28 µM [inhibitor, partial curve, poor fit]. In the case of `CCOC(=O)CCC(=O)Nc1ccc(S(=O)(=O)N2CCCCC2)cc1`, the Potency is reported as active: 5.22 µM. In the case of `CC(NC(=O)c1ccc(Cl)cc1)C1CC2CCC1C2` (stereo not drawn), the Potency is reported as inconclusive: 9.28 µM [inhibitor, partial curve]. In the case of `O=C(NC1CCSc2ccccc21)c1ccc([N+](=O)[O-])cc1` (stereo not drawn), the Potency is reported as inconclusive: 11.7 µM [inhibitor, single point]. In the case of `O=C1NC2(CCCCCC2)C(=O)N1Cc1ccccc1Br`, the Potency is reported as “inactive”. In the case of `Cc1ncsc1C(=O)N1CCCC(C(=O)c2ccc3ccccc3c2)C1` (stereo not drawn), the Potency is reported as “inactive”. In the case of `Cc1[nH]n(-c2ccccc2)c(=O)c1C=NC1CCCCC1`, the Potency is reported as “inactive”. For `Cc1ccc(C2=NN(CCC(=O)N3CCC4(CC3)OCCO4)C(=O)CC2)cc1`, the Potency was inconclusive: 1.47 µM [inhibitor, full curve, poor fit]. For `CCn1c(-c2cc(-c3ccc(OC(C)C)cc3)nc3ccccc23)n[nH]c1=S`, the Potency was active: 1.47 µM. In the case of `Cc1nn2c(-c3ccccc3)ccnc2c1Br`, the Potency is reported as “inactive”. For `Cc1cc2c(=O)oc(-c3ccc(Br)cc3)nc2s1`, the Potency was “inactive”. For `CCCCOC(=O)C1=C(C)Nc2ncnn2C1c1cc(OC)ccc1OC` (stereo not drawn), the Potency was “inactive”. In the case of `CC(C)CCC(CCN1CCCC1)c1ccc2c(c1)OCO2` (stereo not drawn), the Potency is reported as inconclusive: 10.4 µM [inhibitor, partial curve, poor fit]. In the case of `O=C(NC(=S)N1CCCc2ccccc21)c1ccc(Cl)cc1`, the Potency is reported as “inactive”. In the case of `Cc1ccccc1C(=O)NCCCNC(=O)c1ccccn1`, the Potency is reported as “inactive”. In the case of `O=C(COc1ccccc1[N+](=O)[O-])NCc1cccnc1`, the Potency is reported as “inactive”. For `CCCCn1nnnc1SCC(=O)NCc1ccccc1`, the Potency was inconclusive: 18.5 µM [inhibitor, single point]. In the case of `Cc1nnc(NC(=O)c2cccc(S(=O)(=O)N(C)c3cccc(Cl)c3)c2)s1`, the Potency is reported as inconclusive: 18.5 µM [inhibitor, single point]. In the case of `Cc1ccccc1-n1c(SCc2c(C)noc2C)nnc1-c1cccnc1`, the Potency is reported as inconclusive: 9.28 µM [inhibitor, partial curve]. In the case of `[O-]/[N+](=C\c1ccncc1)c1ccccc1`, the Potency is reported as inconclusive: 14.7 µM [inhibitor, single point]. In the case of `CCN(CCCNc1ncnc2nc[nH]c12)c1cccc(C)c1`, the Potency is reported as “inactive”. In the case of `COc1ccc(C(=O)Nc2ccc(OCC(=O)N3CCOCC3)cc2)c(OC)c1OC`, the Potency is reported as inconclusive: 20.8 µM [inhibitor, partial curve, poor fit]. In the case of `O=S(=O)(c1ccc2c(c1)OCCO2)C1CCC(S(=O)(=O)c2c(F)cccc2F)CC1` (stereo not drawn), the Potency is reported as “inactive”. For `COc1ccc(CN2C(=O)c3cccnc3C2=O)cc1S(=O)(=O)NC1CCCCC1C` (stereo not drawn), the Potency was “inactive”. With `COc1ccccc1N1CCN(/N=C/c2cc(OC)c(OC)c(OC)c2)CC1` the Potency was inconclusive: 18.5 µM [inhibitor, single point]. With `CN(CC(=O)Nc1cccc(F)c1)C(=O)C1CSC2(C)CCC(=O)N12` (stereo not drawn) the Potency was “inactive”. With `CSc1nn2c(C(F)(F)F)cc(C(F)(F)F)nc2c1C(N)=O` the Potency was inconclusive: 0.0066 µM [inhibitor, full curve, poor fit].

Source: PubChem BioAssay AID504834 (National Center for Advancing Translational Sciences (NCATS), 2011)
Potency is read from the fitted curve at half-maximal effect.
